The other results are listed elsewhere or left out.
Legend:
Experiment in all cases: log2 fold change, soluble protein after heating vs DMSO (PISA); higher = thermal stabilisation; K562 lysate, 10 uM; active = over 0.2 and 3.5 SD of the protein, either way, in both replicates (recomputed)
[1] = compound: CS(=O)(=O)CCNCc1ccc(-c2ccc3ncnc(Nc4ccc(OCc5cccc(F)c5)c(Cl)c4)c3c2)o1 [lapatinib]
Procedure, shortened: (§1)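 To prepare the extract, K562 pellets were dounce-homogenised in PBS pH 7.4 with 1 mM MgCl2, giving crude material at 1 mg/mL protein. This was treated with 10 μM compound for 30 min, then heated in aliquots for 3 min over 48°C-58°C before pooling and addition of NP-40 to 0.5% at 4°C. Centrifugation at 21,000xg for 90 min left soluble protein in the supernatant, which TMTpro 16plex LC-MS/MS quantified with equalised channel sums. Results are log-two fold changes in thermal stability compared with solvent controls, from duplicates.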

Amino acid sequences for entries named in this document (tags omitted). A change or cut given only in a name is not applied to a line headed by its entry.
UniProt Q96KR1: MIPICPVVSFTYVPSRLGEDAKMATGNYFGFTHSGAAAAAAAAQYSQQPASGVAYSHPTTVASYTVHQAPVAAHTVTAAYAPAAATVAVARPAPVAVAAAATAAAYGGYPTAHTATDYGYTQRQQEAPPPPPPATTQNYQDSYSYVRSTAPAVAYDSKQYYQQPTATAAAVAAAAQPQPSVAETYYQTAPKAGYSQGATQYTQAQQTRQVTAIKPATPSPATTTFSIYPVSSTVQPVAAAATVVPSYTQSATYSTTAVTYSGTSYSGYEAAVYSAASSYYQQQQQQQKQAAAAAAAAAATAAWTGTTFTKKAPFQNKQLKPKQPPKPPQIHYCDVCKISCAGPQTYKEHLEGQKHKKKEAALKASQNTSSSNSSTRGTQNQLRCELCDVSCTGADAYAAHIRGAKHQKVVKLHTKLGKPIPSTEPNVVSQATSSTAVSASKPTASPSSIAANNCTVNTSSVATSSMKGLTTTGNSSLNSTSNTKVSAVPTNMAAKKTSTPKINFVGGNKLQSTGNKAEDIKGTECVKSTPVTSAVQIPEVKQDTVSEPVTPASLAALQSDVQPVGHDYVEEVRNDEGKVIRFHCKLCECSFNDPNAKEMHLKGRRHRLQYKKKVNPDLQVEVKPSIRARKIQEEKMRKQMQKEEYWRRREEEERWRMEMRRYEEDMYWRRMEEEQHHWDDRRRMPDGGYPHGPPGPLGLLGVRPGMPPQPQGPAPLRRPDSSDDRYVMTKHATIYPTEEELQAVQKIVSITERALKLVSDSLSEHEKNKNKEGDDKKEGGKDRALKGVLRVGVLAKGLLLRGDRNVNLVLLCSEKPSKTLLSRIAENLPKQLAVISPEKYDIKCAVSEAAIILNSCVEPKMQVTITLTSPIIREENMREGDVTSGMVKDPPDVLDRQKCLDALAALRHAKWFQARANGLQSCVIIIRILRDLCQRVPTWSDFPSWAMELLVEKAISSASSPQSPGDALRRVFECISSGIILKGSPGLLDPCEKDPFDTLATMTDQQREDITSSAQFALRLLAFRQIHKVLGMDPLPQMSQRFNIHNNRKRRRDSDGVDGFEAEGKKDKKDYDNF
UniProt P07947, whole entry, looked up: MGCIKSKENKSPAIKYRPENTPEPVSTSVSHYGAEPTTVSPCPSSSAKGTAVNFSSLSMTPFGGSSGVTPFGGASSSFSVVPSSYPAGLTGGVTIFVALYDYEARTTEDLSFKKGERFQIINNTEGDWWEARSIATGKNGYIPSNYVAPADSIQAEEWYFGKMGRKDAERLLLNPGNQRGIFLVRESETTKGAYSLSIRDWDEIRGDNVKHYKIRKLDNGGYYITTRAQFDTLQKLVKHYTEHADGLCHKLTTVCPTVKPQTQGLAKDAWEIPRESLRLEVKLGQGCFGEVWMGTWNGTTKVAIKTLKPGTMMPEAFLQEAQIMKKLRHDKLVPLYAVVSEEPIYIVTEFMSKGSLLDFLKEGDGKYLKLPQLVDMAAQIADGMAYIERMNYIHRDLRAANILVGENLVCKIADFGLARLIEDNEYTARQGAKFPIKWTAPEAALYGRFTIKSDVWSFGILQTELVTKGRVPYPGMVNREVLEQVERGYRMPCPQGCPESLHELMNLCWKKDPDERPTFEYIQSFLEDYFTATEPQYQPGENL
UniProt Q9UPT8: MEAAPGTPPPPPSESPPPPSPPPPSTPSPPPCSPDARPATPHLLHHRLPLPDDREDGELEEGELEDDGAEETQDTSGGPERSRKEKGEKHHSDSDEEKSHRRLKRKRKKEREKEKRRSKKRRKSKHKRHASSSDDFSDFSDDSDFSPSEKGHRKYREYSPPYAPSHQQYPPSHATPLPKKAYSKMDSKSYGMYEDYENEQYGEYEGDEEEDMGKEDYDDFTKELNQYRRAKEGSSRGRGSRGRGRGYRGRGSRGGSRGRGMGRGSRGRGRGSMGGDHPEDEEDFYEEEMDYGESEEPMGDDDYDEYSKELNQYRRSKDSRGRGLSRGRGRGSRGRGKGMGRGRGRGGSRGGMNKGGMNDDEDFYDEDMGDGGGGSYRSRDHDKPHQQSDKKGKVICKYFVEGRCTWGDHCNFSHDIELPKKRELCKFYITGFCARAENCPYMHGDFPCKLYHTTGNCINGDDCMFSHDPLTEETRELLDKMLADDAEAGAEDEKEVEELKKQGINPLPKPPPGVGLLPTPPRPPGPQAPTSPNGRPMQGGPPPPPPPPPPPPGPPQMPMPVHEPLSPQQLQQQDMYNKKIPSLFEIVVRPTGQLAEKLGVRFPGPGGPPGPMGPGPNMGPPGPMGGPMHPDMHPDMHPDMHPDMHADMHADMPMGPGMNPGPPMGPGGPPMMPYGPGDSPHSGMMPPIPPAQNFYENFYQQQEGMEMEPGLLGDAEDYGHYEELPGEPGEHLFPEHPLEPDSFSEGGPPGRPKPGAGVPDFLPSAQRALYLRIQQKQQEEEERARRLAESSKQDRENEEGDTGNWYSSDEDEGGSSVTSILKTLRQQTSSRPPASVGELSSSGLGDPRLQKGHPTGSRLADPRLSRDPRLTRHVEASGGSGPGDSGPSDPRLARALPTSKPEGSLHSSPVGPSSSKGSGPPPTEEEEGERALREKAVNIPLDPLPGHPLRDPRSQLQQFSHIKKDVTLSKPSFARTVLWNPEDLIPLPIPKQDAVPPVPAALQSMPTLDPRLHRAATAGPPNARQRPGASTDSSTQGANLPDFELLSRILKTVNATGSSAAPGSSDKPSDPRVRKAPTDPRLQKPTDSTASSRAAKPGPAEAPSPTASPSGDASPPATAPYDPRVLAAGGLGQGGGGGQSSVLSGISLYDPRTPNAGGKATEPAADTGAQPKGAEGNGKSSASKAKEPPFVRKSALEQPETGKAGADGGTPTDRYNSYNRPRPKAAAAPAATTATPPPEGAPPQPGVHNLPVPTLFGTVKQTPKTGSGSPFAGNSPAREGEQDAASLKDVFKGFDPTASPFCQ
UniProt Q9NUE0: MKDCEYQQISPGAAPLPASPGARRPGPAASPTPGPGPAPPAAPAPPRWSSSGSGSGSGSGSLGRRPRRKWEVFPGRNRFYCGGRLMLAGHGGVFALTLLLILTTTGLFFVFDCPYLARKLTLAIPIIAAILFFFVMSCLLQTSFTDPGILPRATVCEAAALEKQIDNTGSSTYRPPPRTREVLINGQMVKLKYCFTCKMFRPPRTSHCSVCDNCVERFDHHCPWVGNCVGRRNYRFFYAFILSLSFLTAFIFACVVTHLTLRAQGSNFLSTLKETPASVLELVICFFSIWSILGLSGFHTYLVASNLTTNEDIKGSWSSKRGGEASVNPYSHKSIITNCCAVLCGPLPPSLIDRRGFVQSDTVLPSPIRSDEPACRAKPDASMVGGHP
UniProt P61981: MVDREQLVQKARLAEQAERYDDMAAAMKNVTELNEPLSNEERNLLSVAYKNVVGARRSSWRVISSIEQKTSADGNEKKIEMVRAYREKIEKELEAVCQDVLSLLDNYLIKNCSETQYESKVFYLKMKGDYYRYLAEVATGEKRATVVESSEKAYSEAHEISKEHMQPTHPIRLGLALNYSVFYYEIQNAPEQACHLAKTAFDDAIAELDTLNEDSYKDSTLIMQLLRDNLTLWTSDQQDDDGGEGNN
UniProt P67809, whole entry, looked up: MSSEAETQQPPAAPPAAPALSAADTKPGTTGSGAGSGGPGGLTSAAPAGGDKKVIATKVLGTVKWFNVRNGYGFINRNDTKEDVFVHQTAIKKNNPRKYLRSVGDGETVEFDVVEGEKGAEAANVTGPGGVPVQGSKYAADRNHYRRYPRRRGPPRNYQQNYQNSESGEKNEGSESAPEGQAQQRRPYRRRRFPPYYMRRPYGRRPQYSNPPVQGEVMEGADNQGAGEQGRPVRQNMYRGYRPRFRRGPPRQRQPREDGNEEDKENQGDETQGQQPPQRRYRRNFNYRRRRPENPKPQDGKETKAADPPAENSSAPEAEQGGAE
UniProt Q96EC8: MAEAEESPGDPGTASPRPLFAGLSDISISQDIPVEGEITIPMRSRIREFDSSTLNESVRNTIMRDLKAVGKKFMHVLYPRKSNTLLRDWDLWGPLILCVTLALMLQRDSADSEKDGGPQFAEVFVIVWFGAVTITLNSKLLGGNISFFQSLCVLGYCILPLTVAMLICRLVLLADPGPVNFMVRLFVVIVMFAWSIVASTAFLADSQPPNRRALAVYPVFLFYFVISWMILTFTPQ
UniProt Q8WV99: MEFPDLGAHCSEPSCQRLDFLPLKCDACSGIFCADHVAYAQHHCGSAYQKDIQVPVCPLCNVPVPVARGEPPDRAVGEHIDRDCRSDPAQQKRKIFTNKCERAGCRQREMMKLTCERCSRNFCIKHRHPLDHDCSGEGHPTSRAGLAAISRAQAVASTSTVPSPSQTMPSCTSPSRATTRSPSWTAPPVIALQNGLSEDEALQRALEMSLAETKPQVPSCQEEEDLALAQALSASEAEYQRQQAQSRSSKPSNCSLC
UniProt O43592: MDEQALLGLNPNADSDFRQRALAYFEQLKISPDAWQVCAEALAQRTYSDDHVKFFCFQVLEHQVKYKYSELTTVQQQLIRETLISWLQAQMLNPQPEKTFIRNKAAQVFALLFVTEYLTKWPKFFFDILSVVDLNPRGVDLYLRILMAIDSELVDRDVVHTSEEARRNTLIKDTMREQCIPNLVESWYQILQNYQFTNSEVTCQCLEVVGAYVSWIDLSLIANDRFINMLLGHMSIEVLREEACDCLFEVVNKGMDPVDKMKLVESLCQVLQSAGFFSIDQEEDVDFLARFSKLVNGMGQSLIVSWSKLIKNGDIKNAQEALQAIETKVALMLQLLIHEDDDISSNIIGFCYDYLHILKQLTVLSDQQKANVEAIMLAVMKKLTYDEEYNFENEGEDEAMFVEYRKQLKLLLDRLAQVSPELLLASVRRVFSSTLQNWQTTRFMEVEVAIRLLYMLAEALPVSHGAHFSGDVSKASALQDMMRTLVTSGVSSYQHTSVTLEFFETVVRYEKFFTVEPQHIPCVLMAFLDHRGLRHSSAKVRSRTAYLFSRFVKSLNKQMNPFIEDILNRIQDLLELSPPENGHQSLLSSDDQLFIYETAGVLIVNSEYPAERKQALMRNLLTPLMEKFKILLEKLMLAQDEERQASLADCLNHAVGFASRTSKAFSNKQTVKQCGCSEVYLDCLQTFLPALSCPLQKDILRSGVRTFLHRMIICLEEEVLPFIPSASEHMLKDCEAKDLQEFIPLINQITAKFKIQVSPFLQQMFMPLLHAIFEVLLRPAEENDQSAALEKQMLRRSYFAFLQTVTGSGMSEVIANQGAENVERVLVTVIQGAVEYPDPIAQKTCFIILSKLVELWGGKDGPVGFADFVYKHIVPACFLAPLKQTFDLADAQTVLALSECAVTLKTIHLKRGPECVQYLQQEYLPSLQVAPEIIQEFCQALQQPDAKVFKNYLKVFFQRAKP
UniProt O14980, whole entry, looked up: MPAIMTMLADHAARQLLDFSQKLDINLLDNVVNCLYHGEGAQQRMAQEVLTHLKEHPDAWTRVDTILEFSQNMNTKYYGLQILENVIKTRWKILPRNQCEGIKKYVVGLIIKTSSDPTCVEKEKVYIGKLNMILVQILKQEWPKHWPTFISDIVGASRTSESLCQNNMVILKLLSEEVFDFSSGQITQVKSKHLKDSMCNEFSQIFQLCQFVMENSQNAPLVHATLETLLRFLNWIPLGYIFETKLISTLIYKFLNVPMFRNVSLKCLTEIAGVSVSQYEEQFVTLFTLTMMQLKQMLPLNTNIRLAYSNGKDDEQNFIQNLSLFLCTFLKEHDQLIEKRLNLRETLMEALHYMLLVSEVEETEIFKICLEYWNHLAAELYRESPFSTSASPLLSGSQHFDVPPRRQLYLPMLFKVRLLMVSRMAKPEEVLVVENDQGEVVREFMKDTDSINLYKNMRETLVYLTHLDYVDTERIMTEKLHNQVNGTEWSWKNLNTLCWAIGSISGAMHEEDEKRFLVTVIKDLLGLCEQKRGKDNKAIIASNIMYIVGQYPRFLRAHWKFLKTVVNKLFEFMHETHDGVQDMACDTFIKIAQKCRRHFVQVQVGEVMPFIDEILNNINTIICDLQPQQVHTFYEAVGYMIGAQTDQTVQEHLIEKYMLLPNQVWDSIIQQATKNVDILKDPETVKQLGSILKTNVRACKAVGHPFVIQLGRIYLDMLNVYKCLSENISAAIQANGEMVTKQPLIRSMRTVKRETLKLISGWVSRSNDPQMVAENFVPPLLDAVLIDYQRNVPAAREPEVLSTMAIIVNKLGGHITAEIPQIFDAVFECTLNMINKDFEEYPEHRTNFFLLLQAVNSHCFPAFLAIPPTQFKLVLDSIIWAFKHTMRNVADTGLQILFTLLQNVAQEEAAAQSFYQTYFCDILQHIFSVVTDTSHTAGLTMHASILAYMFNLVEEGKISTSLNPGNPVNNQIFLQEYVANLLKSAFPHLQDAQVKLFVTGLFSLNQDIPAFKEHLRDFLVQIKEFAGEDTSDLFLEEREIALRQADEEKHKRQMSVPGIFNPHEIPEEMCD

[2] = compound: CS(=O)(=O)N1CCN(Cc2cc3nc(-c4cccc5[nH]ncc45)nc(N4CCOCC4)c3s2)CC1 [pictilisib]
Procedure, shortened: as §1

[3] = compound: C[C@@H](Oc1cc(-c2cnn(C3CCNCC3)c2)cnc1N)c1c(Cl)ccc(F)c1Cl [crizotinib]
Procedure, shortened: as §1

[4] = compound: C[C@H](C1=CC=C(C=C1)C(=O)NC2=C3C=CNC3=NC=C2)N
Procedure, shortened: as §1

[5] = compound: C[C@H](Nc1ncnc2nc[nH]c12)c1cc2cccc(Cl)c2c(=O)n1-c1ccccc1 [duvelisib]
Procedure, shortened: as §1

[6] = compound: Cc1cc(Nc2cc(CN3CCOCC3)c3nc(C)c(Cc4ccc(Cl)cc4F)n3n2)n[nH]1 [gandotinib]
Procedure, shortened: as §1

[7] = compound: Cc1cc(Nc2cc(N3CCN(C)CC3)nc(Sc3ccc(NC(=O)C4CC4)cc3)n2)n[nH]1 [tozasertib]
Procedure, shortened: as §1

[8] = compound: Cc1ccc(-n2nc(C(C)(C)C)cc2NC(=O)Nc2ccc(OCCN3CCOCC3)c3ccccc23)cc1 [doramapimod]
Procedure, shortened: as §1

[9] = compound: Cc1ccc(NC(=O)c2ccc(CN3CC[C@H](N(C)C)C3)c(C(F)(F)F)c2)cc1Nc1nccc(-c2cncnc2)n1 [bafetinib]
Procedure, shortened: as §1

[10] = compound: Cc1cccc(CC(=O)N2CCc3c2ccc(-c2cn(C)c4ncnc(N)c24)c3F)n1
Procedure, shortened: as §1

| Target | log2 fold change [1] | log2 fold change [2] | log2 fold change [3] | log2 fold change [4] | log2 fold change [5] | log2 fold change [6] | log2 fold change [7] | log2 fold change [8] | log2 fold change [9] | log2 fold change [10] |
| --- | --- | --- | --- | --- | --- | --- | --- | --- | --- | --- |
| ZFR (UniProt Q96KR1) | inactive: -0.017 | inactive: -0.062 | inactive: 0.025 | inactive: -0.009 | inactive: -0.051 | inactive: -0.065 | inactive: -0.008 | inactive: 0.017 | inactive: 0.082 | inactive: 0.07 |
| YES1 (UniProt P07947) | inactive: 0 | inactive: -0.063 | inactive: -0.128 | inactive: -0.101 | inactive: -0.066 | inactive: 0.212 | inactive: -0.105 | inactive: -0.005 | inactive: 0.155 | inactive: 0.092 |
| ZC3H4 (UniProt Q9UPT8) | inactive: -0.02 | inactive: -0.004 | inactive: -0.017 | inactive: 0.017 | inactive: 0.008 | inactive: -0.012 | inactive: 0.012 | inactive: -0.012 | inactive: 0.004 | inactive: 0.031 |
| ZDHHC18 (UniProt Q9NUE0) | inactive: 0.029 | inactive: 0.078 | inactive: -0.023 | inactive: -0.017 | inactive: 0.013 | inactive: -0.149 | inactive: -0.061 | inactive: 0.054 | inactive: -0.068 | inactive: -0.11 |
| YWHAG (UniProt P61981) | inactive: 0.014 | inactive: 0.017 | inactive: 0.063 | inactive: -0.005 | inactive: -0.016 | inactive: 0.009 | inactive: -0.028 | inactive: -0.025 | inactive: 0.028 | inactive: 0.011 |
| YBX1 (UniProt P67809) | inactive: 0.004 | inactive: 0.026 | inactive: -0.012 | inactive: 0.098 | inactive: 0.001 | inactive: -0.085 | inactive: -0.05 | inactive: -0.07 | inactive: -0.004 | inactive: -0.113 |
| YEATS4 (UniProt O95619) | inactive: 0.023 | inactive: 0.026 | inactive: 0.02 | active: 0.609 | inactive: -0.015 | inactive: -0.126 | inactive: -0.006 | inactive: 0.064 | inactive: -0.033 | inactive: -0.083 |
| YIPF6 (UniProt Q96EC8) | inactive: -0.004 | inactive: -0.011 | inactive: -0.049 | inactive: -0.002 | inactive: -0.081 | inactive: -0.027 | inactive: -0.016 | inactive: 0.031 | inactive: 0.148 | inactive: -0.011 |
| ZFAND2B (UniProt Q8WV99) | inactive: -0.004 | inactive: -0.022 | inactive: -0.02 | inactive: -0.158 | inactive: 0.03 | inactive: 0.227 | inactive: -0.02 | inactive: 0.144 | inactive: 0.023 | inactive: 0.129 |
| ZC3H18 (UniProt E7ERS3) | inactive: -0.007 | inactive: -0.016 | inactive: 0.021 | inactive: -0.029 | inactive: -0.012 | inactive: 0.072 | inactive: 0.031 | inactive: 0.117 | inactive: -0.028 | inactive: 0.007 |
| YRDC (UniProt Q86U90) | inactive: -0.028 | inactive: -0.038 | inactive: -0.047 | inactive: -0.039 | inactive: 0.018 | inactive: 0.055 | inactive: 0.027 | inactive: 0.035 | inactive: 0.022 | inactive: 0.01 |
| XPOT (UniProt O43592) | inactive: -0.033 | inactive: 0.013 | inactive: -0.051 | inactive: -0.044 | inactive: 0.022 | inactive: -0.086 | inactive: -0.007 | inactive: 0 | inactive: -0.04 | inactive: 0.057 |
| XPO1 (UniProt O14980) | inactive: -0.039 | inactive: 0 | inactive: -0.034 | inactive: -0.037 | inactive: -0.026 | inactive: -0.043 | inactive: 0.021 | inactive: -0.001 | inactive: -0.02 | inactive: 0.07 |
| YJU2 (UniProt Q9BW85) | inactive: 0.029 | inactive: 0.024 | inactive: 0.01 | inactive: 0.037 | inactive: 0.006 | inactive: 0.085 | inactive: -0.007 | inactive: -0.071 | inactive: -0.006 | inactive: 0.043 |

Two entries drawn at random from those above, as already listed:

| Target | log2 fold change [1] | log2 fold change [2] | log2 fold change [3] | log2 fold change [4] | log2 fold change [5] | log2 fold change [6] | log2 fold change [7] | log2 fold change [8] | log2 fold change [9] | log2 fold change [10] |
| --- | --- | --- | --- | --- | --- | --- | --- | --- | --- | --- |
| XPOT (UniProt O43592) | inactive: -0.033 | inactive: 0.013 | inactive: -0.051 | inactive: -0.044 | inactive: 0.022 | inactive: -0.086 | inactive: -0.007 | inactive: 0 | inactive: -0.04 | inactive: 0.057 |
| YEATS4 (UniProt O95619) | inactive: 0.023 | inactive: 0.026 | inactive: 0.02 | active: 0.609 | inactive: -0.015 | inactive: -0.126 | inactive: -0.006 | inactive: 0.064 | inactive: -0.033 | inactive: -0.083 |

— the supplement of paper PMC10849652
